Measurements as given in PubChem BioAssay AID493014 (National Center for Advancing Translational Sciences (NCATS), 2011).
The list shows a part of the results. These are further read-outs of the screen, such as a control signal, another cell line or another target. No call is given for them. Most of these compounds were active or inconclusive in the main read-out, so they are no random draw. Words in brackets tell the shape of the fitted curve; partial curves, single points and poor fits give uncertain potencies.

Assay: qHTS Assay to Find Inhibitors of Chronic Active B-Cell Receptor Signaling
Conditions: ABC-DLBCL IkBa-CBG/CBR reporter, luminescence ratio (green luciferase fused to IkBa over red control in TMD8 lymphoma cells), 4 h
Method in brief: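 TMD8 human ABC-DLBCL cells with doxycycline-inducible IκBα–green luciferase fusion and unfused red luciferase, in 0.5% FBS medium; compounds up to 46 uM, 4 h at 37C. Green/red luminescence ratio, filter-overlap corrected, fitted to concentration-response curves.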

[1] = measured here: CBR red luminescence, cell number
[2] = measured here: IkBa-CBG green luminescence

CCC(C)(C)n1nnnc1CN(Cc1cc2cc(OC)ccc2[nH]c1=O)C1CCCC1
AC50 [1]: 0.355 µM [rising, full curve, poor fit]

C=C(C)C1CC=C(CN2CCN(Cc3ccccc3)CC2)CC1 (configuration not stated)
AC50 [1]: 12.6 µM [rising, partial curve, poor fit]

C1CSC2(N1)C1CC3CC2CC(C1)C31NCCS1 (configuration not stated)
AC50 [1]: 35.5 µM [falling, single point]

CCC(=O)c1cc(F)c(N2CCN(S(=O)(=O)c3ccccc3)CC2)cc1C
AC50 [1]: 2.31 µM [rising, full curve, poor fit]

COC(=O)c1ccc2[nH]c3cccc(/C(=C/c4ccccc4)c4ccccc4)c3c2c1
AC50 [1]: 12.6 µM [rising, partial curve]

Cc1cc2nnc(SCC(=O)N3C(C)CCCC3C)n2c(N)n1 (configuration not stated)
AC50 [1]: 5.8 µM [falling, single point]

COc1ccc(Cl)cc1NC(=O)C(C)OC(=O)Cn1cc(C(F)(F)F)ccc1=O (configuration not stated)
AC50 [1]: 4.11 µM [rising, full curve]

C/C(=N\NC(=O)c1ccoc1C)c1cccc2ccccc12
AC50 [1]: 10 µM [falling, partial curve]

Cc1cc(NC(=O)Nc2cccc3ccccc23)no1
AC50 [1]: 12.6 µM [falling, single point]

Cc1cccc(N(C)S(=O)(=O)c2ccc(-c3cnc(C4CC4)o3)cc2)c1
AC50 [1]: 1.78 µM [rising, full curve]
AC50 [2]: 2 µM [falling, full curve]

COc1ccc(OCC(=O)Nc2nccs2)cc1
AC50 [1]: 6.31 µM [falling, partial curve, poor fit]

Cn1cc(C(=O)C(=O)NCCc2ccccc2)c2ccccc21
AC50 [1]: 35.5 µM [falling, partial curve, poor fit]

CC(=O)NCCc1ccc(S(=O)(=O)N2CCN(c3nc(-c4ccccc4)c(C)s3)CC2)cc1
AC50 [1]: 0.794 µM [rising, full curve, poor fit]

Cc1nc(SCC(=O)c2ccc(F)cc2)c([N+](=O)[O-])[nH]1
AC50 [1]: 35.5 µM [falling, single point]

CCOCCc1nnc(NC(=O)CCS(=O)(=O)c2ccccc2)s1
AC50 [1]: 11.2 µM [falling, partial curve]

COc1c(C(=O)Nc2ccc3[nH]c(=O)[nH]c3c2)cc2ccccc2c1Br
AC50 [1]: 35.5 µM [rising, single point]

Cc1ccccc1NC(=S)NCc1ccc2[nH]c3c(c2c1)CCCC3
AC50 [1]: 8.2 µM [rising, partial curve]
AC50 [2]: 10.3 µM [falling, partial curve]

Cc1ccccc1Cn1cc(NC(=O)c2cc(-c3ccco3)on2)cn1
AC50 [1]: 5.01 µM [falling, partial curve, poor fit]

Cn1c(=O)c2c(SCC(=O)Nc3nccs3)nc(C3CC3)nc2n(C)c1=O
AC50 [1]: 20 µM [rising, partial curve, poor fit]

COc1ccccc1-c1nc(-c2ccc(Br)cc2)no1
AC50 [1]: 2.82 µM [falling, full curve, poor fit]

CCc1ccc(-c2cnc3ccccc3n2)cc1NC(=O)CNC(=O)c1ccccc1
AC50 [1]: 0.562 µM [rising, full curve, poor fit]

Cc1ccc(S(=O)(=O)NCCCNS(=O)(=O)c2ccccc2Br)cc1
AC50 [1]: 32.6 µM [rising, partial curve, poor fit]

Nc1ccc(C(=O)OCCc2ccccc2)cc1
AC50 [1]: 29.1 µM [falling, single point]

CC(C)(C)NC(=O)c1cccc(NC(=O)c2ccc3c(c2)C(=O)N(C(C)(C)C)C3=O)c1
AC50 [1]: 2.82 µM [falling, full curve, poor fit]

COc1ccc(/C=C/c2nnc(NC(=O)CSc3ccc(C)cc3)s2)cc1
AC50 [1]: 14.1 µM [falling, single point]

COc1cc(-c2nc(-c3cccnc3)no2)cc(OC)c1OC
AC50 [1]: 8.2 µM [rising, partial curve]

Cc1ccccc1C(=O)Nc1nnc(-c2ccc(F)cc2)o1
AC50 [1]: 3.26 µM [falling, partial curve]

Cc1noc(NS(=O)(=O)c2ccc(N/C=C/C(=O)c3ccccc3)cc2)c1C
AC50 [1]: 4.61 µM [rising, single point]

NNC(=O)c1cc(Cl)ccc1Cl
AC50 [1]: 3.26 µM [falling, partial curve, poor fit]

CCSc1nnc(NC(=O)C2CC2c2ccccc2)s1 (configuration not stated)
AC50 [1]: 6.51 µM [rising, single point]

Cc1c(Cl)cccc1NC(=O)c1ccc(-n2ccnc2)nc1
AC50 [1]: 10 µM [falling, partial curve]

C=CS(=O)(=O)c1sc(Cl)c(N2CCOCC2)c1[N+](=O)[O-]
AC50 [1]: 20 µM [falling, partial curve, poor fit]

O=C(N/N=C/c1ccc(O)cc1)c1csc2ccccc12
AC50 [1]: 2.82 µM [falling, partial curve, poor fit]

Cc1ccnc(N2CCCC(C(=O)Nc3nnc(C)s3)C2)n1 (configuration not stated)
AC50 [1]: 5.62 µM [rising, single point]

COc1ccc(N(CCC(=O)O)S(=O)(=O)c2ccc(C)c(C)c2)cc1
AC50 [2]: 22.4 µM [rising, partial curve, poor fit]

COc1ccc(NS(=O)(=O)c2cn(C)nc2C)cc1
AC50 [1]: 12.6 µM [falling, partial curve, poor fit]

O=C(NC1=NCCS1)c1ccc(-c2ccc(Cl)cc2)o1
AC50 [1]: 14.6 µM [falling, single point]

CC1CCCN(c2ccc3nncn3n2)C1 (configuration not stated)
AC50 [1]: 35.5 µM [rising, single point]

COc1ccc(CN2C(=O)CSC2c2ccccn2)cc1 (configuration not stated)
AC50 [1]: 2.82 µM [rising, partial curve, poor fit]

CCOc1ccc(NC(=O)c2sc3nc(C)nc(N4CCOCC4)c3c2C)cc1
AC50 [1]: 1.41 µM [rising, full curve, poor fit]

Oc1cccc(Oc2ncc(C(F)(F)F)cc2Cl)c1
AC50 [1]: 22.4 µM [rising, single point]

CC(=O)Oc1ccc2nc(/C=C/c3ccc(C=O)cc3)oc(=O)c2c1
AC50 [1]: 11.2 µM [falling, partial curve]

O=S(=O)(NCCc1ccccc1)c1ccc(F)cc1
AC50 [1]: 7.08 µM [rising, full curve, poor fit]

Cc1nc2ccccn2c1C(=O)c1ccccc1
AC50 [1]: 20.6 µM [rising, single point]

O=[N+]([O-])c1ccc(Oc2cccc3cccnc23)c([N+](=O)[O-])c1
AC50 [1]: 29.1 µM [rising, single point]
AC50 [2]: 29.1 µM [falling, single point]

O=C(COC(=O)c1n[nH]c2ccccc12)c1ccc(F)c(F)c1
AC50 [1]: 10.3 µM [falling, partial curve, poor fit]

CC(C)[C@H](NC(=O)OCc1ccccc1)C(=O)OCC(=O)Nc1c(F)cccc1F
AC50 [1]: 29.1 µM [rising, partial curve, poor fit]

CCN(CC)S(=O)(=O)c1ccc(Cl)c(NC(=O)COC(=O)c2ccc(O)cc2)c1
AC50 [1]: 4.47 µM [falling, partial curve, poor fit]

C=CCC[C@@H](Cc1ccc(F)cc1)C(=O)OC[C@H](Cc1c[nH]c2ccccc12)NC(=O)[C@H](CC=C)CC(=O)NCCO
AC50 [1]: 18.4 µM [falling, single point]

CSc1cccc(NC(=O)CSc2nc3ccccc3o2)c1
AC50 [1]: 35.5 µM [falling, single point]

COc1ccccc1-c1cc(C(F)(F)F)nc(S(=O)(=O)CCCC(=O)N2CCCCC2C)n1 (configuration not stated)
AC50 [1]: 5.01 µM [falling, partial curve]

CC1S/C(=N/N=C/c2cccc([N+](=O)[O-])c2)NC1=O (configuration not stated)
AC50 [1]: 17.8 µM [rising, single point]

O=C(NCCc1ccccc1)C1CCC(CNc2c(N3CCCCC3)c(=O)c2=O)CC1 (configuration not stated)
AC50 [1]: 10.3 µM [rising, partial curve]

COc1ccc2nc(N(Cc3cccnc3)C(=O)CCc3ccccc3)sc2c1
AC50 [1]: 2 µM [rising, partial curve]

OC(CN1C2=NCCCN2c2ccccc21)c1ccc(Br)cc1 (configuration not stated)
AC50 [1]: 13 µM [falling, partial curve, poor fit]

CSc1nc(N2CCN(C)CC2)c2c(c1C#N)CC(C)(C)OC2
AC50 [1]: 3.16 µM [rising, full curve, poor fit]

CCCCCc1ccc(OCCCC[n+]2ccc(C)cc2)c(CCCCC)c1
AC50 [1]: 5.62 µM [falling, partial curve, poor fit]

COc1cc2oc(-c3ccc(O)cc3)cc(=O)c2c(OC)c1O
AC50 [2]: 10 µM [falling, partial curve, poor fit]

Cc1oc(-c2ccc3c(c2)OCCO3)cc1C(=O)NCC(=O)O
AC50 [1]: 35.5 µM [falling, single point]

COc1cc(CNc2ccc3c(c2)CCC3)cc(OC)c1O
AC50 [1]: 23.1 µM [rising, single point]

O=C(O)c1ccc(-n2nc(-c3ccccc3)c3ccccc3c2=O)cc1
AC50 [1]: 20 µM [falling, single point]

CC(/C=N/N1CCN(c2ccccc2)CC1)=C\c1ccco1
AC50 [1]: 3.98 µM [rising, full curve]

CCOc1ccc(NC(=O)CN2CCCC2c2cccs2)cc1S(=O)(=O)N1CCCCC1 (configuration not stated)
AC50 [1]: 5.8 µM [falling, single point]

COc1ccc(-c2c(C)nn3c(C)cc(C)nc23)cc1
AC50 [1]: 11.2 µM [falling, partial curve, poor fit]
